Patent US20210130494A1
Results are given in words; binding and its absence hold for the method and conditions named. Some results given as binding are weak or reduced against the parent protein; the word gives no strength.

Key:
[1] = molecular target: T1, CD20 on stable transfectant line 293-CD20 (UniProt P11836); test: flow cytometry, 293-CD20 cells
T1 sequence (looked up): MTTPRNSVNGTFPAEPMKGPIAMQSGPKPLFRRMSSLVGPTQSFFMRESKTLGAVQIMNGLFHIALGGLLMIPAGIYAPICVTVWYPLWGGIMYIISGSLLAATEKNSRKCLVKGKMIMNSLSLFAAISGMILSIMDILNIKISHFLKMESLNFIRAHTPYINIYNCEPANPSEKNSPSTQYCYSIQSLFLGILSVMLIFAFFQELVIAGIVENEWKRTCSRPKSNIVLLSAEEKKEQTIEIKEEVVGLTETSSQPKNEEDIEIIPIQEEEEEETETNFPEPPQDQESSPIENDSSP

[2] = molecular target: T1, CD20 on stable transfectant line 293-CD20; test: flow cytometry, 293-CD20 cells, 200 µl fusion protein, anti-His-PE

B1: CD22-D123-Leu16 scFv (VH/VL) (construct #65) (protein)
chain: DSSKWVFEHPETLYAWEGACVWIPCTYRALDGDLESFILFHNPEYNKNTSKFDGTRLYESTKDGKVPSEQKRVQFLGDKNKACTLSIHPVHLNDSGQLGLRMESKTEKWMERIHLNVSERPFPPHIQLPPEIQESQEVTLTCLLNFSCYGYPIQLQWLLEGVPMRQAAVTSTSLTIKSVFTRSELKFSPQWSHHGKIVTCQLQDADGKFLSNDTVQLNVKHTPKLEIKVTPSDAIVREGDSVTMTCEVSSSNPEYTTVSWLKDGTSLKKQNTFTLNLREVTKDQSGKYCCQVSNDVGPGRSEEVFLQVQYAPEGGGGSGGGGSGGGGSGGGGSEVQLQQSGAELVKPGASVKMSCKASGYTFTSYNMHWVKQTPGQGLEWIGAIYPGNGDTSYNQKFKGKATLTADKSSSTAYMQLSSLTSEDSADYYCARSNYYGSSYWFFDVWGAGTTVTVSSGSTSGGGSGGGSGGGGSSDIVLTQSPAILSASPGEKVTMTCRASSSVNYMDWYQKKPGSSPKPWIYATSNLASGVPARFSGSGSGTSYSLTISRVEAEDAATYYCQQWSFNPPTFGGGTKLEIKHHHHHH
[1]
  binding: binds
[2]
  binding: binds
